According to publication PMC4515320:
Results are given in words; binding and its absence hold for the method and conditions named. In cells and extracts the contact can be indirect. Here binding means that the protein was enriched with, or labelled near, the bait; the list need not be complete.

Sequences of proteins named here, by UniProt entry; tags and fusion partners are left off. Residues count along the entry.
UniProt P06240: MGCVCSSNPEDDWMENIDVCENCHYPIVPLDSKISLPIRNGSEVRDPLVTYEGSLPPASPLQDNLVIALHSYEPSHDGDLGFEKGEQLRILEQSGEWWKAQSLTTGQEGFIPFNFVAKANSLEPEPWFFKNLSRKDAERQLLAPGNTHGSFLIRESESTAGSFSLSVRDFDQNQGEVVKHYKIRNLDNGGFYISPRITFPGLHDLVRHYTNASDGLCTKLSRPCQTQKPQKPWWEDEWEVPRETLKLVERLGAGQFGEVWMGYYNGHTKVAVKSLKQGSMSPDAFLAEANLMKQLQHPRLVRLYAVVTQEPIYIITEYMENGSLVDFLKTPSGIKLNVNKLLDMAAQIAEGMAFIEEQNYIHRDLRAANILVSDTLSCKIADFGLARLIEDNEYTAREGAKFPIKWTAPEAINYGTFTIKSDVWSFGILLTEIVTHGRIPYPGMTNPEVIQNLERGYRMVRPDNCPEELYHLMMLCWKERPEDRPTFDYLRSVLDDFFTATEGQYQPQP
UniProt P09405: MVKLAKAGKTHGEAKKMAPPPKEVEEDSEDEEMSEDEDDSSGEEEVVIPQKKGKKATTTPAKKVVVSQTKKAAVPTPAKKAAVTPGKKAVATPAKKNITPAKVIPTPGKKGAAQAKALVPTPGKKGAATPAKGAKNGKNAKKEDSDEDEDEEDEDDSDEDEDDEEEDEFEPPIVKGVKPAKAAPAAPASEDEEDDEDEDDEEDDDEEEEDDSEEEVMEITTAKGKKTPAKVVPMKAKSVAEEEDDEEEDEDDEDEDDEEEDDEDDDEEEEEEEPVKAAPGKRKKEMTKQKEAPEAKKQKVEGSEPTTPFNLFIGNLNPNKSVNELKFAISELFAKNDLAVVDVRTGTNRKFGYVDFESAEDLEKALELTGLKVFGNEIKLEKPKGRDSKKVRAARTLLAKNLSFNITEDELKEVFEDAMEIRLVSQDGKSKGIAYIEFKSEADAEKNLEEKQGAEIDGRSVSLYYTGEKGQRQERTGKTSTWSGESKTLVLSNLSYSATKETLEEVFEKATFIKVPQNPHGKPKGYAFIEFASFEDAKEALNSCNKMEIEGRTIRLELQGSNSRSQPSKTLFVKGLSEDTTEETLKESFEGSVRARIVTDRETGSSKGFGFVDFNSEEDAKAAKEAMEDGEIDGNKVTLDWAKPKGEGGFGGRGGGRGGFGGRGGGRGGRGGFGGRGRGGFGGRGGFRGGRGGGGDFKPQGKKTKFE
UniProt Q5NCP0, residues 24-784: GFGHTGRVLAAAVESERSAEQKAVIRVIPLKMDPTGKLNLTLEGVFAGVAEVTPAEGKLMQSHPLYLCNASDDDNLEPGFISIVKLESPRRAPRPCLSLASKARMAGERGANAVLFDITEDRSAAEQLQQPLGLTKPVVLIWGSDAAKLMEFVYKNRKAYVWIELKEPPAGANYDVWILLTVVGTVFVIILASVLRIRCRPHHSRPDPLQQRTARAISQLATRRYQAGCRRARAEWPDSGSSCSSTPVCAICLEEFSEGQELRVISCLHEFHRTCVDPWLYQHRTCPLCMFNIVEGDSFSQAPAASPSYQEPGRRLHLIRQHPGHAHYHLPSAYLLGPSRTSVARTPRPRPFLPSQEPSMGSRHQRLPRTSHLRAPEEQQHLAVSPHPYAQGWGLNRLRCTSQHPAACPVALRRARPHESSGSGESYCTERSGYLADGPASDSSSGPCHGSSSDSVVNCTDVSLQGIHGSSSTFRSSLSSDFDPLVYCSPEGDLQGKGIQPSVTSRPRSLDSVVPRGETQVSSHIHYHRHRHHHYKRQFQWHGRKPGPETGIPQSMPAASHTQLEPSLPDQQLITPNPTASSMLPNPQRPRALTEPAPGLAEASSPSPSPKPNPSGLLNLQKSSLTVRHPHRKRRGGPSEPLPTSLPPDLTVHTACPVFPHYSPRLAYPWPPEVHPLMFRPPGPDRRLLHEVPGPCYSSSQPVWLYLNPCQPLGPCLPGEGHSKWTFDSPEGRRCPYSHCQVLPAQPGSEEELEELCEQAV

Molecular target: Lymphocyte-specific protein tyrosine kinase (Lck), mouse (mouse (endogenous in LSTRA)) (UniProt P06240)
Assay: affinity purification with mass spectrometry; LSTRA whole cell lysate in 1 % NP-40 lysis buffer, 500 ug protein immunoprecipitated with 2 ug anti-Lck antibody or control mouse IgG overnight; eight bands specific to the Lck immunoprecipitate cut from a 4-20 % SDS-PAGE gel; LC-ESI-MS/MS

| Molecule | binding |
| --- | --- |
| Nucleolin (from UniProt P09405 1-707) | binds |
| E3 Ubiquitin-protein ligase RNF43 (from UniProt Q5NCP0 24-784) (enzyme) | binds |
| CR6-interacting factor 1 (CRIF1), mouse (protein, UniProt Q9CR59 1-222) MAALAMRSGYLLRLSVALGPRSRSYRAPPPPRRRPGPHSPDPENLLTPRWQLTPRYVAKQFGRHGAISGVPPASLWPTPEQLRELEAEEQEWYPSLATMQESLRLQQQALEARRQAREQRIAECMAKMPQMIENWRKQKRERWEKIQADKERRARLQAEAQERLGYHVDPRSARFQELLQDLDKQQRKRLKEERQRQKKEARIAAMASAEAQDSAVSGEPSS | binds |
| Transcription initiation factor TFIID subunit 12 (protein, UniProt Q8VE65 1-161) MNQFGPSALINLSSFSSVKPEPASTPPQGSMANSTTVGKIAGTPGTGGRLSPENNQVLTKKKLQDLVREVDPNEQLDEDVEEMLLQIADDFIESVVTAACQLARHRKSSTLEVKDVQLHLERQWNMWIPGFGSEEIRPYKKACTTEAHKQRMALIRKTTKK | binds |
| GTP-binding protein 2 (protein, UniProt Q3UJK4 1-602) MDSRVSELFGGCCRPGGGPAMGGNLKARGAGGSSSCGGPKGKKKNGRNRGGKANNPPYLPPEAEDGNIEYKLKLVNPSQYRFEHLVTQMKWRLQEGRGEAVYQIGVEDNGLLVGLAEEEMRASLKTLHRMAEKVGADITVLREREVDYDSDVPRKITEVLVRKVPDNQQFLDLRVAVLGNVDSGKSTLLGVLTQGELDNGRGRARLNLFRHLHEIQSGRTSSISFEILGFNSKGEVVNYSDSRTAEEICESSSKMITFIDLAGHHKYLHTTIFGLTSYCPDCALLLVSANTGIAGTTREHLGLALALKVPFFIVVSKVDLCAKTTVERTVRQLERVLKQPGCHKVPMLVTSEDDAVTAAQQFAQSPNVTPIFTLSSVSGESLDLLKVFLNILPPLTNSKEQEELMQQLTEFQVDEIYTVPEVGTVVGGTLSSGICREGDQLVVGPTDDGCFLELRVCSIQRNRSACRVLRAGQAATLALGDFDRALLRKGMVMVSPEMNPTICSVFEAEIVLLFHATTFRRGFQVTVHVGNVRQTAVVEKIHAKDKLRTGEKAVVRFRFLKHPEYLKVGAKLLFREGVTKGIGHVTDVQAITAGEAQATMGF | binds |
| ADP/ATP translocase 2 (protein, UniProt P51881 1-298) MTDAAVSFAKDFLAGGVAAAISKTAVAPIERVKLLLQVQHASKQITADKQYKGIIDCVVRIPKEQGVLSFWRGNLANVIRYFPTQALNFAFKDKYKQIFLGGVDKRTQFWRYFAGNLASGGAAGATSLCFVYPLDFARTRLAADVGKAGAEREFKGLGDCLVKIYKSDGIKGLYQGFNVSVQGIIIYRAAYFGIYDTAKGMLPDPKNTHIFISWMIAQSVTAVAGLTSYPFDTVRRRMMMQSGRKGTDIMYTGTLDCWRKIARDEGSKAFFKGAWSNVLRGMGGAFVLVLYDEIKKYT | binds |
| ADP/ATP translocase 1 (protein, UniProt P48962 1-298) MGDQALSFLKDFLAGGIAAAVSKTAVAPIERVKLLLQVQHASKQISAEKQYKGIIDCVVRIPKEQGFLSFWRGNLANVIRYFPTQALNFAFKDKYKQIFLGGVDRHKQFWRYFAGNLASGGAAGATSLCFVYPLDFARTRLAADVGKGSSQREFNGLGDCLTKIFKSDGLKGLYQGFSVSVQGIIIYRAAYFGVYDTAKGMLPDPKNVHIIVSWMIAQSVTAVAGLVSYPFDTVRRRMMMQSGRKGADIMYTGTLDCWRKIAKDEGANAFFKGAWSNVLRGMGGAFVLVLYDEIKKYV | binds |
| ADP/ATP translocase 4 (protein, UniProt Q3V132 1-320) MSNESSKKQSSKKALFDPVSFSKDLLAGGVAAAVSKTAVAPIERVKLLLQVQASSKQISPEARYKGMLDCLVRIPREQGFLSYWRGNLANVIRYFPTQALNFAFKDKYKELFMSGVNKEKQFWRWFLANLASGGAAGATSLCVVYPLDFARTRLGVDIGKGPEQRQFTGLGDCIMKIAKSDGLIGLYQGFGVSVQGIIVYRASYFGAYDTVKGLLPKPKETPFLVSFIIAQIVTTCSGILSYPFDTVRRRMMMQSGESDRQYKGTIDCFLKIYRHEGVPAFFRGAFSNILRGTGGALVLVLYDKIKEFLNIDVGGSSSGD | binds |
| E3 ubiquitin-protein ligase RNF181 (enzyme, UniProt Q9CY62 1-165) MASYFDEHDCEPLNPEREARNNMLLELARRVRGAWSWAPGGRSLFNRMDFEDLGLVDWEHHLPPPAAKAVVESLPRTVISSAKADLKCPVCLLEFEAEETVIEMPCHHLFHSNCILPWLSKTNSCPLCRHELPTDDDSYEEHKKDKARRQQQQHRLENLHGAMYT | binds |
| Hermansky-Pudlak syndrome 6 protein homolog (protein, UniProt Q8BLY7 1-805) MKRAGTLRLLSDLSNFTGAARLRELLAGDPAVLVRCSPDGRHLLLLRPPGSPAPQLLVAVRGPGLPLERAWPEGDPSPLDVFFVPWLARPALILVWESGLAEVWGVGMEPGWKLLQSTELCPDGGARVMAVAATRGRLVWCEERQPGVKDQPEQLSTAFSHRVCFKTLETSGEAGTKLGCTHILLHHCPLFGLIASRKDLFLVPTTNTWSGVAHLLLIWSPSKGKVIVAAPSLGLSHSKSLNPKQGDTWDFRTLLRGLPGFLSPREPLAVHTWAPSSQGLLLLDLKGKVSLVQCHGGTRTVGILQEAPVSLKGSAALGTFHGTLACVLGSTLELLDMSSGRLLEKKVLSTDRVHLLEPPAPGMKNEEELETRGALRLLSALGLFCVCWETPQGLELPSDKDLVFEEACGYYQRRSLRGTQLTPEELRHNSMFRAPQALASILQGHLPPSTLLTTLRAELRDYRSIEQLKAQLVAGDDEEAGWTELAEHEVARLLRTQLTGDQLAQFNTIFQALPTAAWGATLQALQLQPDRSGRLRSQAPPDVWKKVLRAPTAGKEHPNGILPPFELLCQCLGQLEPQWLPPFVKLAQQQGGPGWGAEGPSLPLYRRALAVLGEEGKRPEALELELLLGSGRPKAVLQAVRQLIKKEEWERALEAGLALDASSPLLRSEIFKLLLAEFAQHRRLDAHLPLLCRLCPPEVAPHELLLLLRTHLPDDEGTTPFPEPGAEPPLTVGLVRALLEQTGAQGRPSGPVQSTYEDILWDPGTPPPTPPRGPTASLPASDHPGQEAWVPPGQGLGAADVGVHL | binds |
| B-cell stimulating factor 3 (protein, UniProt Q9QZM3 28-225) LNRTGDPGPGPSIQKTYDLTRYLEHQLRSLAGTYLNYLGPPFNEPDFNPPRLGAETLPRATVNLEVWRSLNDRLRLTQNYEAYSHLLCYLRGLNRQAATAELRRSLAHFCTSLQGLLGSIAGVMATLGYPLPQPLPGTEPAWAPGPAHSDFLQKMDDFWLLKELQTWLWRSAKDFNRLKKKMQPPAASVTLHLEAHGF | binds |
